Assay results: the supplement of paper PMC10849652
The other results are listed elsewhere or left out.

Chains of the proteins cited; added tags and fusions are not shown. Lines headed by an entry give the natural chain unless they say otherwise; changes in a name come on top.
UniProt Q6IPR3: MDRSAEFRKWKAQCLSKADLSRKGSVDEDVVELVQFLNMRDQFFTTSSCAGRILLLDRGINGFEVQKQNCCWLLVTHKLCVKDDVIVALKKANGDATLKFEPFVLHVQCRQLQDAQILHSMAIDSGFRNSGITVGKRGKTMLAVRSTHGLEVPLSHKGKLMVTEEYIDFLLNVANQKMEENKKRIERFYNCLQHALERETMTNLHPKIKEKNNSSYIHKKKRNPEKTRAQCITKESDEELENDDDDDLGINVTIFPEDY
UniProt Q9NUQ3: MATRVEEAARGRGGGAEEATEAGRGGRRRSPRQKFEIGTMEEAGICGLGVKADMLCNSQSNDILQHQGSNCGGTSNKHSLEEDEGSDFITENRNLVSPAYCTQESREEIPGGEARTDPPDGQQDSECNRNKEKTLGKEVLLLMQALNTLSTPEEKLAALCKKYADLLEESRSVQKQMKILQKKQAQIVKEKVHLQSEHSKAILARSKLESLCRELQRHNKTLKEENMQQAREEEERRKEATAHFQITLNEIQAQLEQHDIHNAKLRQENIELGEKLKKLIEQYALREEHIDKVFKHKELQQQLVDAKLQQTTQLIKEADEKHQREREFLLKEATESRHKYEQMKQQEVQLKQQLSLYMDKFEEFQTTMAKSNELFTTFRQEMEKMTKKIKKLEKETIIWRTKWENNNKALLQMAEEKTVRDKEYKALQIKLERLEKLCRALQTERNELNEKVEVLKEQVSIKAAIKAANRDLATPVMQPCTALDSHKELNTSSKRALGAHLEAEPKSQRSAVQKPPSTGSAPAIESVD
UniProt Q9H4B7, whole entry, looked up: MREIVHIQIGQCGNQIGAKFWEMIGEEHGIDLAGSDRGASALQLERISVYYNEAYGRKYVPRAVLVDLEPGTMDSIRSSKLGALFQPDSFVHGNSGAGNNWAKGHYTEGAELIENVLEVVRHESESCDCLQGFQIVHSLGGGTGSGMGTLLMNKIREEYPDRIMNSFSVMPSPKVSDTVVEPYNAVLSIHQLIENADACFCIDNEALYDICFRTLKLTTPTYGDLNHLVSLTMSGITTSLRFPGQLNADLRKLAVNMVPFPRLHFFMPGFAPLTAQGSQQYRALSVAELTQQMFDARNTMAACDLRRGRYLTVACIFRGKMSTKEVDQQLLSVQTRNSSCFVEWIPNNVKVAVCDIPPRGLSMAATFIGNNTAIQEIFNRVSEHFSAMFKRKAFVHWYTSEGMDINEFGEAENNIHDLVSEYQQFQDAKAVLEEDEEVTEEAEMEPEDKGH
UniProt P61077: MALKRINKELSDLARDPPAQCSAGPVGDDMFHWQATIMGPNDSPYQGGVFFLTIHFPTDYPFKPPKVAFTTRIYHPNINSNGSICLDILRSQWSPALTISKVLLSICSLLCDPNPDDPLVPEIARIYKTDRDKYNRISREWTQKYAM
UniProt Q9C0C9: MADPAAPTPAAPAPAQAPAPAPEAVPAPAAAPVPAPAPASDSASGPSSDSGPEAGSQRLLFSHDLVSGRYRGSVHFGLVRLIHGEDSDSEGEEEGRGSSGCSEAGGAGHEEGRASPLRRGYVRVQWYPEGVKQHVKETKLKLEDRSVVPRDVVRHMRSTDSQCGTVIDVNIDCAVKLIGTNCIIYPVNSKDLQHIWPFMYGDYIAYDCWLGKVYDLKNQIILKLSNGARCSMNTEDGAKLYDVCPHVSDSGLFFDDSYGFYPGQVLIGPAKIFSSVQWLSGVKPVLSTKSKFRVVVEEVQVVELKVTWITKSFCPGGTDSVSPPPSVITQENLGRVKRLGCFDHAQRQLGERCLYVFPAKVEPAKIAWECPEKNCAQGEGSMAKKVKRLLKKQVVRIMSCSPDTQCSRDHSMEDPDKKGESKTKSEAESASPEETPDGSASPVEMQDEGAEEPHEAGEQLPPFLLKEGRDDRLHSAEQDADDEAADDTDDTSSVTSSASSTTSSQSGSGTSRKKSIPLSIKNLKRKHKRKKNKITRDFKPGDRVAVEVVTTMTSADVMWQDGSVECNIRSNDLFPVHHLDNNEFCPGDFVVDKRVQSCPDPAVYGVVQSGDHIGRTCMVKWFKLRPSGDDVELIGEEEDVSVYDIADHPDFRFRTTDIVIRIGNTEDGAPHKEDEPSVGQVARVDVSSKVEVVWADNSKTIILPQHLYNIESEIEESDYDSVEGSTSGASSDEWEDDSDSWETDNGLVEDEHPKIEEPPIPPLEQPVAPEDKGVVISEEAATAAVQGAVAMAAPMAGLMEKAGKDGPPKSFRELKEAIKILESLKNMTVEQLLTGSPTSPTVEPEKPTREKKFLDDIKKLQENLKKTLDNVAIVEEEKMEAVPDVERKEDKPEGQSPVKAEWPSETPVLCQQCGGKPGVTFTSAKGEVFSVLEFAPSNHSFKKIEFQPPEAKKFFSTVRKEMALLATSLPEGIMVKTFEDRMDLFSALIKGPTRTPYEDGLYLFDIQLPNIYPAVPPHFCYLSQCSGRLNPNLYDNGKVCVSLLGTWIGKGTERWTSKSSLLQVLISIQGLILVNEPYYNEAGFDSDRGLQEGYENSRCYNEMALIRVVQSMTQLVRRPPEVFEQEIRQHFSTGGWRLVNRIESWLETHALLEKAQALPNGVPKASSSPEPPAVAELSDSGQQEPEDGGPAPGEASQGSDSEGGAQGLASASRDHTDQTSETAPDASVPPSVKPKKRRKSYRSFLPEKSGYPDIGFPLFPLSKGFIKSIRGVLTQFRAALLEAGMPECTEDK
UniProt Q16222: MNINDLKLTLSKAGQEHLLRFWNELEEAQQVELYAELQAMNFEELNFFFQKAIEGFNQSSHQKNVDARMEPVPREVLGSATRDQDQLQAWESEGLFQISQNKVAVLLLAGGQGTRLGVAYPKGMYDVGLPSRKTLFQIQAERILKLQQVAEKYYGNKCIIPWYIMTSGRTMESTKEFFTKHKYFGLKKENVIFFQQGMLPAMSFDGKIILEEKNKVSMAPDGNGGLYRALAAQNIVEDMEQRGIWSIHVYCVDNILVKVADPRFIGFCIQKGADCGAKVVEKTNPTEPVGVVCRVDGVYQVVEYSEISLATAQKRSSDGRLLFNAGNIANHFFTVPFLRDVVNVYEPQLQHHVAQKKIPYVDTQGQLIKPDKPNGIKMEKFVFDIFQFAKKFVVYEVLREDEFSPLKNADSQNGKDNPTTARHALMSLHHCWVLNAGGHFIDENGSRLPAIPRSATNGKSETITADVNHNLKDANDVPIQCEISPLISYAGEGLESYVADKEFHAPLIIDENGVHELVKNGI
UniProt P04350, whole entry, looked up: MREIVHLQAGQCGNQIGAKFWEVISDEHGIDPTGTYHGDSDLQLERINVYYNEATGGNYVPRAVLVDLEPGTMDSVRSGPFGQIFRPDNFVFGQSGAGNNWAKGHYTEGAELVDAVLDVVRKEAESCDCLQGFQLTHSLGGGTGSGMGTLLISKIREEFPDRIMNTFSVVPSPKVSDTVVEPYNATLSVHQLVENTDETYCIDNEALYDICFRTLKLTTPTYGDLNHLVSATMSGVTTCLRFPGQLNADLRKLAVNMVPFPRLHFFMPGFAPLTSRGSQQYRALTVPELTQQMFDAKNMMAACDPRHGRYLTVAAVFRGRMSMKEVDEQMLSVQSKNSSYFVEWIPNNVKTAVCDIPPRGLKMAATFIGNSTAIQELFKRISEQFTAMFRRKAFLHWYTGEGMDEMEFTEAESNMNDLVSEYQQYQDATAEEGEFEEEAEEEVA
UniProt P60604: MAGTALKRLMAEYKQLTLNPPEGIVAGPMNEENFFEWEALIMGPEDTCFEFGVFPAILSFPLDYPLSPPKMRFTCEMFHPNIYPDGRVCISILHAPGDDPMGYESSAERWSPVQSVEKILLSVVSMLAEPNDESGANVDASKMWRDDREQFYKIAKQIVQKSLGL
UniProt Q86TV6: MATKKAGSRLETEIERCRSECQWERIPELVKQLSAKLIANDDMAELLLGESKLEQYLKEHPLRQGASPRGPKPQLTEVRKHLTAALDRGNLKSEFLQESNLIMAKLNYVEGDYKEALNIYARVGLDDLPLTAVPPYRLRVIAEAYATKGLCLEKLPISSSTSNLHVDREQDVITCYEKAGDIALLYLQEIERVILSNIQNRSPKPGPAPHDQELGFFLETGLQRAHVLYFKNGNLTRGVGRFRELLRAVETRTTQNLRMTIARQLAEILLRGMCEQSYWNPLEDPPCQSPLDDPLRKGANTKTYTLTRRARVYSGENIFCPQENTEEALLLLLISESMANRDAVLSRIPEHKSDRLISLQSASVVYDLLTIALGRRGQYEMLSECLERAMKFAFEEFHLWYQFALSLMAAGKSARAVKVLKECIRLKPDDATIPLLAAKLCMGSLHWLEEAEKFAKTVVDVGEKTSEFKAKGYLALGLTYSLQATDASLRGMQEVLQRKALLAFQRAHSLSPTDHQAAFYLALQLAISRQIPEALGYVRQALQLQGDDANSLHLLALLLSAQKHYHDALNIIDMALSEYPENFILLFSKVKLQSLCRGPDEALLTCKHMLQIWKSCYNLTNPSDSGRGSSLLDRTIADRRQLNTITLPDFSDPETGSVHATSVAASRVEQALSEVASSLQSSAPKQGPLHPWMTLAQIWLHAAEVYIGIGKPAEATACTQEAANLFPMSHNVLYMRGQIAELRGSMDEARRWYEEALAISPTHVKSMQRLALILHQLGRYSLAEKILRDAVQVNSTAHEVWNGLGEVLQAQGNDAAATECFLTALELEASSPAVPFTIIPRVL
UniProt Q9GZZ9, whole entry, looked up: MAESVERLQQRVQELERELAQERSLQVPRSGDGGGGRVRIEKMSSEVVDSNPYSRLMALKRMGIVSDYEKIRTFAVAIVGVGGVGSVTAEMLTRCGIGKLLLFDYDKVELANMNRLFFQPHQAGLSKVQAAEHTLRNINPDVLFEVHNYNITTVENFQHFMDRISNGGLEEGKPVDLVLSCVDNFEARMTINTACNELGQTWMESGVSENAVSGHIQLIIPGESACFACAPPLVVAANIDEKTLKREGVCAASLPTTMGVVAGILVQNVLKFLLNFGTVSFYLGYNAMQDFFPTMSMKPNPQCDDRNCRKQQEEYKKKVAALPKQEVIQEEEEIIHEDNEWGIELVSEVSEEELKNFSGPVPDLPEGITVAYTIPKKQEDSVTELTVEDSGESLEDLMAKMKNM
UniProt Q9BSJ2, whole entry, looked up: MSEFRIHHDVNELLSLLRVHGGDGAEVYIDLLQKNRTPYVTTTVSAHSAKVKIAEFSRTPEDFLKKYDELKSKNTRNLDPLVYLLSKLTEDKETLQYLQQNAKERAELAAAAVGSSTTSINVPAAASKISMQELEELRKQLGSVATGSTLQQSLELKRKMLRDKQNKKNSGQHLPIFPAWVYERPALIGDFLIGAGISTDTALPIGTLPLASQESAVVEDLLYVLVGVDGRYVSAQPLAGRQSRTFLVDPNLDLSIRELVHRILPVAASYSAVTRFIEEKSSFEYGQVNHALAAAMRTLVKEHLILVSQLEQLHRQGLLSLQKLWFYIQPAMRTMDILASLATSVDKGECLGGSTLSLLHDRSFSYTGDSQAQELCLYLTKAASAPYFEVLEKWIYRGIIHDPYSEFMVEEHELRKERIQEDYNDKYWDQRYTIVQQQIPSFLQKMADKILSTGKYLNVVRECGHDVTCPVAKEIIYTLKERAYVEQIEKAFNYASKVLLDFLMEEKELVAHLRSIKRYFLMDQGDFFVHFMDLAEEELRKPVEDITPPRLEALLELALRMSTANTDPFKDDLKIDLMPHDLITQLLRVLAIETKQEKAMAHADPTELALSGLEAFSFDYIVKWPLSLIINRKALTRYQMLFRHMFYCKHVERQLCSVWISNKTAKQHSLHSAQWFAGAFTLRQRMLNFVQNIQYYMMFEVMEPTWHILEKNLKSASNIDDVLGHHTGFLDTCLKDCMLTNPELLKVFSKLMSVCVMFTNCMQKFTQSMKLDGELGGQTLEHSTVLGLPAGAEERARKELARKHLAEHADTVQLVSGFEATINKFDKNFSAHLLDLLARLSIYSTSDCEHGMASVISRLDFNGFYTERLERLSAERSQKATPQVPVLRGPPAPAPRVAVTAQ
UniProt P23258, whole entry, looked up: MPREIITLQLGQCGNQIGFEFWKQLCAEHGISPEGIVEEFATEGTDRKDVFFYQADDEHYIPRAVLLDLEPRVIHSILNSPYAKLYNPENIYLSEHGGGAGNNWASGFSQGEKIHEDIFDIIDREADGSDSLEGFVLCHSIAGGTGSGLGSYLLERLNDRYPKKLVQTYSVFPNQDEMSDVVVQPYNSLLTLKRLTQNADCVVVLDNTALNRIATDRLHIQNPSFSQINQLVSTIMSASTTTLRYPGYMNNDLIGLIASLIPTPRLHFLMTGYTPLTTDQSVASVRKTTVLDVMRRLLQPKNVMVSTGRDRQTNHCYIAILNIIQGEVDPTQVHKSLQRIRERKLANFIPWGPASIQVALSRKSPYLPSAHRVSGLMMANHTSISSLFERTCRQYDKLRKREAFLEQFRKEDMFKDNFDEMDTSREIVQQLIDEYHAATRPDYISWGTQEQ
UniProt Q9BRA2: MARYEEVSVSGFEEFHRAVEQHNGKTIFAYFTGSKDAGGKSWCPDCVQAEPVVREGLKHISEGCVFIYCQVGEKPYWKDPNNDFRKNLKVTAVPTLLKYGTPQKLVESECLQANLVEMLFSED

compound: C1=CC=C(C=C1)[C@H](COC2=CC3=C(C=C2)NC(=O)N3)NC(=O)C4=CC=CN(C4=O)CC5=CC(=C(C=C5)F)F; assay: log2 fold change, soluble protein after heating vs DMSO (PISA); higher = thermal stabilisation; K562 cells, 10 uM, 30 min; active = over 0.2 and 3.5 SD of the protein, either way, in both replicates (recomputed)
Summary of the method: (§1)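 K562 cells at 2×10^6 cells/mL were exposed to 10 μM compound for 30 min, then aliquots were heated for 3 min across 48°C-58°C, pooled, and extracted in PBS containing 0.5% NP-40 at 4°C. The supernatant after 21,000xg for 90 min was taken as soluble protein and measured by TMTpro 16plex LC-MS/MS with channel sums equalised. Thermal stability is reported relative to control samples, with values from duplicates. Fold changes are given on a log2 scale.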

**Q.** For TYW3 (UniProt Q6IPR3), which log2 fold change is on record?
**A.** inactive: 0.067

**Q.** UBA2 (UniProt Q9UBT2) was tested. Which log2 fold change did it give?
**A.** inactive: -0.006

**Q.** Which log2 fold change does the source give for TXLNG (UniProt Q9NUQ3) here?
**A.** inactive: -0.023

**Q.** How did the log2 fold change turn out when TSN (UniProt Q15631) was run?
**A.** inactive: -0.005

**Q.** How did the log2 fold change turn out when TUBB1 (UniProt Q9H4B7) was run?
**A.** inactive: -0.012

**Q.** With TTN isoform 12 (UniProt Q8WZ42) as the target, how does the log2 fold change read?
**A.** inactive: 0.038

**Q.** How did the log2 fold change turn out when UBE2D3 isoform 3 (UniProt P61077) was run?
**A.** inactive: -0.032

**Q.** How did the log2 fold change turn out when UBE2O (UniProt Q9C0C9) was run?
**A.** inactive: 0.006

**Q.** With UAP1 (UniProt Q16222) as the target, how does the log2 fold change read?
**A.** inactive: -0.007

**Q.** Which log2 fold change does the source give for UBC (UniProt P0CG48) here?
**A.** inactive: 0.023

**Q.** Which log2 fold change does the source give for TSEN54 (UniProt Q7Z6J9) here?
**A.** inactive: 0.02

**Q.** How did the log2 fold change turn out when TSPAN14 (UniProt Q8NG11) was run?
**A.** inactive: -0.034

**Q.** How did the log2 fold change turn out when TWSG1 (UniProt Q9GZX9) was run?
**A.** inactive: -0.024

**Q.** TUBB4A (UniProt P04350) was tested. Which log2 fold change did it give?
**A.** inactive: 0.043

**Q.** TUBA1C (UniProt Q9BQE3) was tested. Which log2 fold change did it give?
**A.** inactive: 0.008

**Q.** With TUBB8B (UniProt A6NNZ2) as the target, how does the log2 fold change read?
**A.** inactive: -0.028

**Q.** Which log2 fold change does the source give for UBE2G2 (UniProt P60604) here?
**A.** inactive: 0

**Q.** With TTC7B isoform 2 (UniProt Q86TV6) as the target, how does the log2 fold change read?
**A.** inactive: -0.367

**Q.** UBE2B (UniProt P63146) was tested. Which log2 fold change did it give?
**A.** inactive: 0.074

**Q.** Which log2 fold change does the source give for UBA5 (UniProt Q9GZZ9) here?
**A.** inactive: -0.032

**Q.** How did the log2 fold change turn out when UBE2N (UniProt P61088) was run?
**A.** inactive: -0.065

**Q.** Which log2 fold change does the source give for TXNL4A (UniProt P83876) here?
**A.** inactive: -0.028

**Q.** With UBE2G1 (UniProt P62253) as the target, how does the log2 fold change read?
**A.** inactive: -0.016

**Q.** UBE2E3 (UniProt Q969T4) was tested. Which log2 fold change did it give?
**A.** inactive: -0.076

**Q.** UBAC2 (UniProt Q8NBM4) was tested. Which log2 fold change did it give?
**A.** inactive: -0.09

**Q.** With UBE2L3 isoform 3 (UniProt P68036) as the target, how does the log2 fold change read?
**A.** inactive: 0.015

**Q.** With TSR1 (UniProt Q2NL82) as the target, how does the log2 fold change read?
**A.** inactive: 0.036

**Q.** For UBAC1 (UniProt Q9BSL1), which log2 fold change is on record?
**A.** inactive: -0.03

**Q.** TUBGCP2 isoform 4 (UniProt Q9BSJ2) was tested. Which log2 fold change did it give?
**A.** inactive: 0.014

**Q.** Which log2 fold change does the source give for TUBB6 (UniProt K7ES63) here?
**A.** inactive: -0.057

**Q.** For TTC4 (UniProt O95801), which log2 fold change is on record?
**A.** inactive: -0.089

**Q.** With TUBB2A (UniProt Q13885) as the target, how does the log2 fold change read?
**A.** inactive: -0.066

**Q.** For TUBE1 (UniProt Q9UJT0), which log2 fold change is on record?
**A.** inactive: -0.053

**Q.** How did the log2 fold change turn out when TUBG1 (UniProt P23258) was run?
**A.** inactive: 0.02

**Q.** For TSSC4 (UniProt Q9Y5U2), which log2 fold change is on record?
**A.** inactive: 0.002

**Q.** Which log2 fold change does the source give for TXNDC17 (UniProt Q9BRA2) here?
**A.** inactive: 0.054

**Q.** How did the log2 fold change turn out when U2AF1 isoform 2 (UniProt Q01081) was run?
**A.** inactive: 0.021

**Q.** Which log2 fold change does the source give for TWF1 (UniProt Q12792) here?
**A.** inactive: -0.013

compound: CC1=C(SC2=C1C(=N[C@H](C3=NN=C(N32)C)CC(=O)N)C4=CC=C(C=C4)Cl)C; assay: as above
Summary of the method: as §1

**Q.** TYW3 (UniProt Q6IPR3) was tested. Which log2 fold change did it give?
**A.** inactive: -0.083

**Q.** UBA2 (UniProt Q9UBT2) was tested. Which log2 fold change did it give?
**A.** inactive: 0.034

**Q.** For TXLNG (UniProt Q9NUQ3), which log2 fold change is on record?
**A.** inactive: 0.014

**Q.** How did the log2 fold change turn out when TSN (UniProt Q15631) was run?
**A.** inactive: 0.01

**Q.** How did the log2 fold change turn out when TUBB1 (UniProt Q9H4B7) was run?
**A.** inactive: 0.009

**Q.** With TTN isoform 12 (UniProt Q8WZ42) as the target, how does the log2 fold change read?
**A.** inactive: 0.02

**Q.** UBE2D3 isoform 3 (UniProt P61077) was tested. Which log2 fold change did it give?
**A.** inactive: 0.097

**Q.** How did the log2 fold change turn out when UBE2O (UniProt Q9C0C9) was run?
**A.** inactive: 0.072

**Q.** How did the log2 fold change turn out when UAP1 (UniProt Q16222) was run?
**A.** inactive: 0.041

**Q.** For UBC (UniProt P0CG48), which log2 fold change is on record?
**A.** inactive: 0.087

**Q.** Which log2 fold change does the source give for TSEN54 (UniProt Q7Z6J9) here?
**A.** inactive: 0.119

**Q.** How did the log2 fold change turn out when TSPAN14 (UniProt Q8NG11) was run?
**A.** inactive: 0.086

**Q.** How did the log2 fold change turn out when TWSG1 (UniProt Q9GZX9) was run?
**A.** inactive: -0.009

**Q.** With TUBB4A (UniProt P04350) as the target, how does the log2 fold change read?
**A.** inactive: 0

**Q.** With TUBA1C (UniProt Q9BQE3) as the target, how does the log2 fold change read?
**A.** inactive: 0.089

**Q.** How did the log2 fold change turn out when TUBB8B (UniProt A6NNZ2) was run?
**A.** inactive: 0.051

**Q.** UBE2G2 (UniProt P60604) was tested. Which log2 fold change did it give?
**A.** inactive: 0.147

**Q.** How did the log2 fold change turn out when TTC7B isoform 2 (UniProt Q86TV6) was run?
**A.** inactive: -0.083

**Q.** Which log2 fold change does the source give for UBE2B (UniProt P63146) here?
**A.** inactive: 0.13

**Q.** UBA5 (UniProt Q9GZZ9) was tested. Which log2 fold change did it give?
**A.** inactive: 0.014

**Q.** With UBE2N (UniProt P61088) as the target, how does the log2 fold change read?
**A.** inactive: 0.064

**Q.** How did the log2 fold change turn out when TXNL4A (UniProt P83876) was run?
**A.** inactive: 0.019

**Q.** How did the log2 fold change turn out when UBE2G1 (UniProt P62253) was run?
**A.** inactive: 0.051

**Q.** For UBE2E3 (UniProt Q969T4), which log2 fold change is on record?
**A.** inactive: 0.119

**Q.** How did the log2 fold change turn out when UBAC2 (UniProt Q8NBM4) was run?
**A.** inactive: 0.01

**Q.** With UBE2L3 isoform 3 (UniProt P68036) as the target, how does the log2 fold change read?
**A.** inactive: 0.059

**Q.** For TSR1 (UniProt Q2NL82), which log2 fold change is on record?
**A.** inactive: -0.049

**Q.** Which log2 fold change does the source give for UBAC1 (UniProt Q9BSL1) here?
**A.** inactive: 0.028

**Q.** Which log2 fold change does the source give for TUBGCP2 isoform 4 (UniProt Q9BSJ2) here?
**A.** inactive: -0.219

**Q.** For TUBB6 (UniProt K7ES63), which log2 fold change is on record?
**A.** inactive: 0.193

**Q.** With TTC4 (UniProt O95801) as the target, how does the log2 fold change read?
**A.** inactive: -0.008

**Q.** TUBB2A (UniProt Q13885) was tested. Which log2 fold change did it give?
**A.** inactive: -0.054

**Q.** Which log2 fold change does the source give for TUBE1 (UniProt Q9UJT0) here?
**A.** inactive: 0.018

**Q.** Which log2 fold change does the source give for TUBG1 (UniProt P23258) here?
**A.** inactive: 0.001

**Q.** For TSSC4 (UniProt Q9Y5U2), which log2 fold change is on record?
**A.** inactive: -0.119

**Q.** For TXNDC17 (UniProt Q9BRA2), which log2 fold change is on record?
**A.** inactive: 0.032

**Q.** For U2AF1 isoform 2 (UniProt Q01081), which log2 fold change is on record?
**A.** inactive: 0.03

**Q.** TWF1 (UniProt Q12792) was tested. Which log2 fold change did it give?
**A.** inactive: 0.041
